Patent US8486979B2, “1,2,4 oxadiazole compounds and methods of use thereof” (AbbVie Inc., priority 2006, dated 2013)
Some of these results come from one statement about several compounds together.

Protein sequences, listed by entry. Tags and fused reporters are not part of them. Residues count along the entry.
UniProt P17787, 26-502: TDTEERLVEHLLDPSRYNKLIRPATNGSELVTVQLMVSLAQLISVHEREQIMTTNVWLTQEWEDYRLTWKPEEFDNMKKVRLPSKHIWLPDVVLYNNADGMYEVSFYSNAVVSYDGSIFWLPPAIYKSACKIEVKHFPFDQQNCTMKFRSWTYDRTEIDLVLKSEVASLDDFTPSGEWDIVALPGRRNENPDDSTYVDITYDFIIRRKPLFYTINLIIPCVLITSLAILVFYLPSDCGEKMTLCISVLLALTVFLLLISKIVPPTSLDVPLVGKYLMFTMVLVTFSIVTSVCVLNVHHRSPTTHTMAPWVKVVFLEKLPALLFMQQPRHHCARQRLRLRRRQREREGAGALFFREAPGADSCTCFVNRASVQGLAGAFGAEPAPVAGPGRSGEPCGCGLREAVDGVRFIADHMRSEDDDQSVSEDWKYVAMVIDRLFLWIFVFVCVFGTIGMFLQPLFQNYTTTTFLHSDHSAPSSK
UniProt P43681, 29-627 limits assumed: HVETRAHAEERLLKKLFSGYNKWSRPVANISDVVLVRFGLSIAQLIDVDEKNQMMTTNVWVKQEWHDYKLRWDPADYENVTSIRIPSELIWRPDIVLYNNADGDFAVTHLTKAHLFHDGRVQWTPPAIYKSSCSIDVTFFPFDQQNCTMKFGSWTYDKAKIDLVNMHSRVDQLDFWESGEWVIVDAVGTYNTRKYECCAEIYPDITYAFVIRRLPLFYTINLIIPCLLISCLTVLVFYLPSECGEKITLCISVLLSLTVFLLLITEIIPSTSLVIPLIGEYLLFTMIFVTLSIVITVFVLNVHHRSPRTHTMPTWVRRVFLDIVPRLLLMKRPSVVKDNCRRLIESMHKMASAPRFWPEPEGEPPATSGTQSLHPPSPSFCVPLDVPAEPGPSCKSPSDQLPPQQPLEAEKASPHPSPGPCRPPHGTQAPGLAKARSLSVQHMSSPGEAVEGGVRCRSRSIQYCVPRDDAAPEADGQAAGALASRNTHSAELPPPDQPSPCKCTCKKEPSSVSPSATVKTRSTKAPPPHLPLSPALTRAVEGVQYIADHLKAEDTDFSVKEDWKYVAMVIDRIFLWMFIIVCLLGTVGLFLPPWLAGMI

Target: T1, human α4β2 nicotinic acetylcholine receptor (Homo sapiens, UniProt P17787+P43681)
T1 construct: expressed in transfected cells
Assay: Calcium flux (FLIPR) assay, HEK-293 cells expressing human α4β2 nAChR
Assay type: cell-based
Conditions: in the presence of α4β2 PAM Compound 1 at 10 μM
Method: Experimental Procedure: Human embryonic kidney (HEK) 293 cells stably expressing human α4β2 or α3β4 combinations are grown to confluency in 162 cm^2 tissue culture flasks in DMEM media supplemented with 10% FBS and 25 μg/ml zeocin and 200 μg/ml hygromycin B. IMR-32 neuroblastoma cells (ATCC) are grown to confluency in 162 cm^2 tissue culture flasks in minimum essential media supplemented with 10% FBS and 1 mM sodium pyruvate, 1% non-essential amino acids and 1% antibiotic-antimycotic. […] Calcium flux was measured using calcium-3 assay kit (Molecular Devices, Sunnyvale, Calif.) or fluo-4 (Invitrogen). […] The cells were loaded with 100 μl of the dye per well and incubated at room temperature for up to one hour for HEK 293 clonal stable cell lines or 30 minutes-45 minutes at 37° C. for IMR-32 cells Fluorescence measurements were read simultaneously from all the wells by a Fluorometic Imaging Plate Reader (FLIPR) at an excitation wavelength of 480 nm and an emission wavelength of 520 nm. Baseline fluorescence was measured for the first 6 seconds at which 3× concentrations of modulator/test compounds were added to the cell plate at 50 μl and incubated for five minutes. The fluorescence intensity was captured every second for the first 1 minute followed by every 5 seconds for an additional 4 minutes. […]

Clc1ccc(OC[C@H]2CCN2)cn1 [Compound A, 5-[(2R)-azetidin-2-ylmethoxy]-2-chloropyridine]
leftward shift of agonist concentration-response (EC50): 10-100 fold
